# Test results as given in PubChem BioAssay AID1347075 (National Center for Advancing Translational Sciences (NCATS), 2019).
# In all, about 400,000 compounds went through this assay and about 5,500 (1.4%) were called active. The source calls these results inconclusive, neither active nor inactive. Calls follow the shape of the dose curve; as a rule, active = well fitted cell-killing curve with a large enough effect; inconclusive = small, poorly fitted or top-dose-only effect, or effect the other way; inactive = flat fitted curve, though single readings scatter.
# Assay: qHTS assay for MDR1-selective chemotherapeutics: Primary screen using the parental adenocarcinoma cell KB-3-1; also: nearly all actives have a fitted effect of over 60% in size
# Conditions: KB-3-1 viability, CellTiter-Glo ATP luminescence, 72 h
# Description: A prime difficulty in effectively treating cancer is the development of cellular resistance to multiple structurally unrelated anticancer drugs, a phenomenon known as multidrug resistance (MDR). […] Numerous strategies to overcome P-gp-mediated MDR have been explored, including the design of drugs that evade recognition and efflux, and development of inhibitors to block efflux and restore drug accumulation. […] An alternative approach is to exploit resistance by identifying drugs that target MDR cells over the non-resistant parental cells from which they were selected. […]
# Our goal is to identify compounds that selectively kill P-gp-expressing MDR cells. […] This assay will be utilized to conduct a quantitative high-throughput screen (qHTS) in collaboration with the NIH Chemical Genomics Center to identify selective agents, and probe hits arising from the screen will be validated using secondary assays and characterized through a well-established follow-up research program. […]
# Briefly, 5 microL of media containing either KB-3-1 cells (columns 1-2, 4-48) are dispensed into Greiner white, treated solid-bottom 1536-well assay plates (media-only control is added to column 3). […] CellTiter-Glo (2.5 µL/well) is then added, and the plates are read in a ViewLux reader (Perkin-Elmer, clear luminescence filter, 1 second exposure, 1x binning) following a 10 minute incubation. […]
row,Compound,outcome
1,C[N+]1=C2C=CC=CC=C2SC12C([N+](=O)[O-])=CC([N+](=O)[O-])=C[C-]2[N+](=O)[O-] (stereo unspecified),inconclusive
